# According to the supplement of paper PMC8090911:
# Counter-ions that a name gives are not always drawn. Some of the results follow. Repeats are few or missing, and single values can be far off. Where a SMILES comes first, the peptide text is derived from it. [ ]: non-standard residue; d: D form. The star is where a group is joined. Sta = CC(C)C[C@H](N)[C@@H](O)CC(=O)O; Isovaleryl = CC(C)CC(=O)*
# Test system: p95-ErbB2-MCF7
# Test: perinuclear lysosome accumulation (PNLA, size of LAMP2 puncta), robust Z-score vs plate median; higher = more perinuclear lysosome accumulation (reversal of invasive lysosome distribution)
# Details: 5 µM; 24 h
row,Structure (SMILES),perinuclear lysosome accumulation
1,CN(C)CCOC1=Cc2ccccc2Sc2ccc(Cl)cc21 [Zotepine],-0.737
2,CCN(Cc1ccncc1)C(=O)C(CO)c1ccccc1 (centres undefined) [Tropicamide],0.147
3,O=C(NCCNCC(O)COc1ccc(O)cc1)N1CCOCC1 (centres undefined) [Xamoterol hemifumarate],-0.0805
4,CCN(CC)CC#CCOC(=O)C(O)(c1ccccc1)C1CCCCC1 (centres undefined) [Oxybutynin chloride],-0.717
5,Cc1ncc([N+](=O)[O-])n1CCO [Metronidazole],0.000761
6,OC(CCN1CCCCC1)(c1ccccc1)C1CC2C=CC1C2 (centres undefined) [Biperiden hydrochloride],-2.55
7,CN1C2CCCC1CC(NC(=O)c1nn(C)c3ccccc13)C2 (centres undefined) [Granisetron],1.01
8,CC(C)N1CCN(c2ccc(OCC3COC(Cn4cncn4)(c4ccc(Cl)cc4Cl)O3)cc2)CC1 (centres undefined) [Terconazole],3.2
9,O=C(CCCN1CC=C(n2c(=O)[nH]c3ccccc32)CC1)c1ccc(F)cc1 [Droperidol],-0.0633
10,CCN(CC)CCNC(=O)c1cc(S(C)(=O)=O)ccc1OC [Tiapride hydrochloride],2.52
11,C#CCN(C)Cc1ccccc1 [Pargyline hydrochloride],-0.118
12,COc1ccc2cc(CCC(C)=O)ccc2c1 [Nabumetone],0.175
13,CC(=O)N[C@@H](CC(=O)N[C@@H](CCC(=O)O)C(=O)O)C(=O)O [Spaglumic acid],-1.8
14,Cc1ccc(S(=O)(=O)NC(=O)NN2CC3CCCC3C2)cc1 (centres undefined) [Gliclazide],0.478
15,COc1cc2nc(N3CCN(C(=O)c4ccco4)CC3)nc(N)c2cc1OC [Prazosin hydrochloride],0.118
16,CCn1cc(C(=O)O)c(=O)c2cnc(N3CCNCC3)nc21 [Pipemidic acid],0.41
17,COc1nc(C)nc(Cl)c1NC1=NCCN1 [Moxonidine],0.183
18,Clc1ccc(C(Cn2ccnc2)OCc2c(Cl)cccc2Cl)c(Cl)c1 (centres undefined) [Isoconazole],-0.759
19,NC(=O)N1c2ccccc2C=Cc2ccccc21 [Carbamazepine],-0.0856
20,CN(C)CCN(Cc1cccs1)c1ccccn1 [Methapyrilene hydrochloride],-0.0761
21,COc1c(O[C@@H]2O[C@H](CO)[C@@H](O)[C@H](O)[C@H]2O)cc2c(c1OC)-c1ccc(SC)c(=O)cc1[C@@H](NC(C)=O)CC2 [Thiocolchicoside],-0.562
22,O=C(Cn1ccnc1[N+](=O)[O-])NCCO [Etanidazole],1.01
23,CO[C@H]1/C=C/O[C@@]2(C)Oc3c(C)c(O)c4c(c3C2=O)C2=NC3(CCN(CC(C)C)CC3)NC2=C(NC(=O)/C(C)=C\C=C\[C@H](C)[C@H](O)[C@@H](C)[C@@H](O)[C@@H](C)[C@H](OC(C)=O)[C@@H]1C)C4=O [Rifabutin],1.29
24,Nc1nc(=S)c2ncn([C@@H]3O[C@H](CO)[C@@H](O)[C@H]3O)c2[nH]1 [Thioguanosine],0.896
25,CC(C)NCC(O)COc1ccc(COCCOC(C)C)cc1 (centres undefined) [Bisoprolol fumarate],-0.352

# 6 consecutive entries already listed, for reference:
row,Structure (SMILES),perinuclear lysosome accumulation
18,Clc1ccc(C(Cn2ccnc2)OCc2c(Cl)cccc2Cl)c(Cl)c1 (centres undefined) [Isoconazole],-0.759
19,NC(=O)N1c2ccccc2C=Cc2ccccc21 [Carbamazepine],-0.0856
20,CN(C)CCN(Cc1cccs1)c1ccccn1 [Methapyrilene hydrochloride],-0.0761
21,COc1c(O[C@@H]2O[C@H](CO)[C@@H](O)[C@H](O)[C@H]2O)cc2c(c1OC)-c1ccc(SC)c(=O)cc1[C@@H](NC(C)=O)CC2 [Thiocolchicoside],-0.562
22,O=C(Cn1ccnc1[N+](=O)[O-])NCCO [Etanidazole],1.01
23,CO[C@H]1/C=C/O[C@@]2(C)Oc3c(C)c(O)c4c(c3C2=O)C2=NC3(CCN(CC(C)C)CC3)NC2=C(NC(=O)/C(C)=C\C=C\[C@H](C)[C@H](O)[C@@H](C)[C@@H](O)[C@@H](C)[C@H](OC(C)=O)[C@@H]1C)C4=O [Rifabutin],1.29

# Following part

row,Structure (SMILES),perinuclear lysosome accumulation
1,Nc1nc(=O)c2nc(CNc3ccc(C(=O)N[C@@H](CCC(=O)O)C(=O)O)cc3)cnc2[nH]1 [Folic acid],0.667
2,CC(=O)N[C@@H](CC(C)C)C(=O)O [N-Acetyl-L-leucine],0.21
3,CC[C@H]1OC(=O)[C@H](C)[C@@H](O[C@H]2C[C@@](C)(OC)[C@@H](O)[C@H](C)O2)[C@H](C)[C@@H](O[C@@H]2O[C@H](C)C[C@H](N(C)C)[C@H]2O)[C@](C)(O)C[C@@H](C)/C(=N\OCOCCOC)[C@H](C)[C@@H](O)[C@]1(C)O [Roxithromycin],1.55
4,Nc1nc(F)nc2c1ncn2[C@@H]1O[C@H](CO)[C@@H](O)[C@@H]1O [Fludarabine],0.492
5,CCOC(=O)OC(C)OC(=O)[C@@H]1N2C(=O)[C@@H](NC(=O)[C@H](N)c3ccccc3)[C@H]2SC1(C)C (some centres undefined) [Bacampicillin hydrochloride],0.721
6,CCOC(=O)[C@H](CCc1ccccc1)N[C@H]1CCc2ccccc2N(CC(=O)O)C1=O [Benazepril HCl],-0.000183
7,COC1=C(OC)C(=O)C(CCCCCCCCCCO)=C(C)C1=O [Idebenone],-0.241
8,NCCCC[C@H](N[C@@H](CCc1ccccc1)C(=O)O)C(=O)N1CCC[C@H]1C(=O)O [Lisinopril],-2.12
9,O=C(Nc1cccc2c(=O)cc(-c3nnn[nH]3)oc12)c1ccc(OCCCCc2ccccc2)cc1 [Pranlukast],1.25
10,CC(C)(C)NC[C@H](O)COc1nsnc1N1CCOCC1 [Timolol maleate salt],0.369
11,Cc1scc2c1N(C(=O)CN1CCN(C)CC1)c1ccccc1NC2=O [Telenzepine dihydrochloride],-0.533
12,Cn1c(=O)c2nc[nH]c2n(C)c1=O [Theophylline monohydrate],-0.475
13,c1ccc(C2CN3CCSC3=N2)cc1 (centres undefined) [Tetramisole hydrochloride],1.14
14,C=C1c2cccc(O)c2C(=O)C2=C(O)[C@]3(O)C(=O)C(C(N)=O)=C(O)[C@@H](N(C)C)[C@@H]3[C@@H](O)[C@H]12 [Methacycline hydrochloride],-0.153
15,CCCN[C@H]1CCc2nc(N)sc2C1 [Pramipexole],-0.407
16,CCOC(=O)c1ccc(OC(=O)CCCCCNC(=N)N)cc1 [Gabexate mesilate],-0.786
17,Cc1cc(=O)oc2cc(O)ccc12 [Hymecromone],-1.48
18,CCCNC(C)C(=O)Nc1ccccc1C (centres undefined) [Prilocaine hydrochloride],-0.0327
19,COc1ccc(CN(CCN(C)C)c2ccccn2)cc1 [Pyrilamine maleate],-0.792
20,CC(COc1ccccc1)N(CCCl)Cc1ccccc1 (centres undefined) [Phenoxybenzamine hydrochloride],2.23
21,CCCCC[C@H](O)/C=C/[C@@H]1[C@@H](C/C=C\CCCC(=O)O)[C@@H](O)C[C@H]1O [Dinoprost trometamol],-0.463
22,CC(=O)c1ccc(S(=O)(=O)NC(=O)NC2CCCCC2)cc1 [Acetohexamide],1.52
23,O=C(O)/C=C/c1ccc(Cn2ccnc2)cc1 [Ozagrel hydrochloride],0.757
24,CCCc1nc(C)c2c(=O)nc(-c3cc(S(=O)(=O)N4CCN(CC)CC4)ccc3OCC)[nH]n12 [Vardenafil],0.161
25,Cc1cc(/C=C/c2ccc3cc(N(C)C)ccc3[n+]2C)c(C)n1-c1ccccc1 [Pyrvinium pamoate],5.89

row,Structure (SMILES),perinuclear lysosome accumulation
1,CCCCNc1ccc(C(=O)OCCOCCOCCOCCOCCOCCOCCOCCOCCOC)cc1 [Benzonatate],-0.573
2,COCCOC(=O)C1=C(C)NC(C)=C(C(=O)OC/C=C/c2ccccc2)C1c1cccc([N+](=O)[O-])c1 (centres undefined) [Cilnidipine],0.646
3,CN(C)CCOc1ccc(/C(=C(/CCCl)c2ccccc2)c2ccccc2)cc1 [Toremifene],-1.24
4,CCN1CCN(C(=O)N[C@@H](C(=O)N[C@@H]2C(=O)N3C(C(=O)O)=C(CSc4nnnn4C)CS[C@H]23)c2ccc(O)cc2)C(=O)C1=O [Cefoperazone dihydrate],0.123
5,O=C(NCCO[N+](=O)[O-])c1cccnc1 [Nicorandil],1.1
6,Cc1ccc(Cl)c(Nc2ccccc2C(=O)O)c1Cl [Meclofenamic acid sodium salt monohydrate],0.181
7,C=C1/C(=C\C=C2/CCC[C@]3(C)[C@@H]([C@H](C)/C=C/[C@@H](O)C4CC4)CC[C@@H]23)C[C@@H](O)C[C@@H]1O [Calcipotriene],1.76
8,COC(=O)Nc1nc2ccc(SC(C)C)cc2[nH]1 [Methiazole],0.454
9,CC1=Nc2ccc(Cl)cc2S(=O)(=O)N1 [Diazoxide],0.0302
10,CC(C(=O)O)c1ccc(N2Cc3ccccc3C2=O)cc1 (centres undefined) [Indoprofen],-0.339
11,Oc1ccc(OCc2ccccc2)cc1 [Monobenzone],-0.646
12,C[C@H]1C[C@H]2[C@@H]3CCC4=CC(=O)C=C[C@]4(C)[C@@]3(F)[C@@H](O)C[C@]2(C)[C@@]1(O)C(=O)CO [Betamethasone],-1.36
13,Cc1nnc(NS(=O)(=O)c2ccc(N)cc2)s1 [Sulfamethizole],0.872
14,CCN1CCC[C@H]1CNC(=O)c1c(OC)ccc(Br)c1OC [Remoxipride Hydrochloride],-2.73
15,CC1CC(OC(=O)C(O)c2ccccc2)CC(C)(C)N1C (centres undefined) [Eucatropine hydrochloride],0.0216
16,Cc1cnc(NC(=O)C2=C(O)c3ccccc3S(=O)(=O)N2C)s1 [Meloxicam],0.693
17,O=C(O)COC(=O)Cc1ccccc1Nc1c(Cl)cccc1Cl [Aceclofenac],-0.11
18,Cc1cc(CC(=O)O)n(C)c1C(=O)c1ccc(Cl)cc1 [Zomepirac sodium salt],0.0515
19,CC1Cc2ccccc2N1NC(=O)c1ccc(Cl)c(S(N)(=O)=O)c1 (centres undefined) [Indapamide],-0.414
20,Nc1ccc(S(=O)(=O)Nc2ccnn2-c2ccccc2)cc1 [Sulfaphenazole],1.84
21,O=C(NCC(O)CO)c1c(I)c(C(=O)NCC(O)CO)c(I)c(N(CCO)C(=O)CO)c1I (centres undefined) [Ioversol],1.35
22,CO/N=C(\C(=O)N[C@@H]1C(=O)N2C(C(=O)O)=C(COC(N)=O)CS[C@H]12)c1ccco1 [Cefuroxime sodium salt],1.27
23,C[C@H](O)C(=O)Nc1c(I)c(C(=O)NC(CO)CO)c(I)c(C(=O)NC(CO)CO)c1I [Iopamidol],-3.02
24,CC(C)CC(=O)N[C@H](C(=O)N[C@H](C(=O)N[C@@H](CC(C)C)[C@@H](O)CC(=O)N[C@@H](C)C(=O)N[C@@H](CC(C)C)[C@@H](O)CC(=O)O)C(C)C)C(C)C [Pepstatin A] (Isovaleryl-VV[Sta]A[Sta]-OH),0.814
